Laboratory results as given in PubChem BioAssay AID504834 (National Center for Advancing Translational Sciences (NCATS), 2011).
Several values for one entry are separate records, joined by “and”; a condition that tells them apart may be missing. Equal entries are not always repeated. Among all 320,000 compounds or so, about 22,000 (6.9%) were called active. The shares of active, inactive and inconclusive entries below differ from those in the screen. Calls come from the whole dose curve; as a rule, active = well fitted inhibition curve with a large enough effect; inconclusive = small, poorly fitted or top-dose-only effect, or another doubt; inactive = no such curve, though single readings can be large or run the other way. A potency beside an inconclusive call is a rough fit, not a confirmed value.
Potency is the fitted concentration of half-maximal effect.

Assay: Primary qHTS for delayed death inhibitors of the malarial parasite plastid, 96 hour incubation
Settings: P. falciparum luciferase reporter growth; series mostly up to 28.7 µM
Outline: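 Plates of compound plus infected erythrocytes (2% hematocrit, 0.05% parasitemia final) incubate 96 hours, 37 C, 5% CO2. Detection reagent added; reduced luminescence from the parasites' luciferase reporter flags inhibition.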
With CCCCc1cc(=O)oc2cc(OC(C)C(=O)NCCN3CCOCC3)c(Cl)cc12 (configuration not stated) the Potency was inconclusive: 10.4 µM [inhibitor, single point].
In the case of CCc1cccc(NC(=O)C2CCCN2C(=O)Nc2ccc(C)cc2)c1 (configuration not stated), the Potency was “inactive”.
With CC(=O)Nc1ccc(S(=O)(=O)N2CCOCC2)cc1 the Potency was active: 2.94 µM.
With C=CCC1(CC=C)CCCN1C(=O)C1CCC(=O)N(CCc2ccccc2)C1 (configuration not stated) the Potency was inconclusive: 4.15 µM [inhibitor, partial curve].
With COc1ccc(N(CC(=O)N/N=C/c2ccc3c(c2)OCO3)S(=O)(=O)c2ccccc2)cc1 the Potency was inconclusive: 0.828 µM [inhibitor, full curve, poor fit].
In the case of COc1ccc(N2C(=O)CCC(C(=O)NCc3ccccn3)C2c2ccc(OC)c(OC)c2)cc1 (configuration not stated), the Potency was active: 4.65 µM.
For CCc1ccc(C(C(=O)NC2CCCC2)N(CCOC)C(=O)CCC(=O)Nc2cc(C)on2)cc1 (configuration not stated), the Potency was “inactive”.
In the case of Cc1ccc(-c2cc(C(=O)N3CCN(c4ncccn4)CC3)c3cc(Br)ccc3n2)o1, the Potency was “inactive”.
For FC(F)(F)c1ccc2c(c1)NP(=S)(N1CCOCC1)c1nccn1-2 (configuration not stated), the Potency was inconclusive: 18.5 µM [inhibitor, single point].
In the case of COC(=O)C1CSC(c2ccc(Cl)cc2)N1C(=O)c1ccccc1 (configuration not stated), the Potency was “inactive”.
For COc1cc(OC)cc(Oc2ccc(S(=O)(=O)N3CCCCC3)cc2[N+](=O)[O-])c1, the Potency was inconclusive: 11.7 µM [inhibitor, single point].
In the case of COc1ccc(-n2nc(C(=O)NCC(=O)NCCCN3CCCCCC3)c3ccccc3c2=O)cc1Cl, the Potency was inconclusive: 10.4 µM [inhibitor, single point].
With O=C(O)c1cc(Cl)c(Cl)cc1C(=O)NCc1ccco1 the Potency was inconclusive: 20.8 µM [inhibitor, single point].
In the case of Cc1ccc(SC(C)C(=O)Nc2ccccc2-c2ccccc2)cc1 (configuration not stated), the Potency was active: 13.1 µM.
For CCOC(=O)c1c(/N=C/N(C)C)sc(/C=N/Nc2ccccc2)c1-c1ccccc1, the Potency was active: 10.4 µM.
With O=C(CSc1nnc(-c2cccnc2)n1Cc1ccco1)N1c2ccccc2Sc2ccccc21 the Potency was inconclusive: 18.5 µM [inhibitor, single point].
With CSCCC(NC(=O)c1ccccc1)C(=O)N1CCN(C(C)=O)CC1 (configuration not stated) the Potency was inconclusive: 11.7 µM [inhibitor, partial curve, poor fit].
For Cc1ccc(S(=O)(=O)N2CCOCC2)cc1NC(=O)C(c1ccc(Cl)cc1)C(C)C (configuration not stated), the Potency was inconclusive: 10.4 µM [inhibitor, single point].
In the case of COc1ccc(Nc2ncc(C#N)c(N)n2)c(OC)c1, the Potency was “inactive”.
For CCOc1ccc(S(=O)(=O)N(C)c2ccc(OCC(=O)Nc3nc(-c4cc(OC)ccc4OC)cs3)cc2)cc1, the Potency was inconclusive: 8.28 µM [inhibitor, partial curve, poor fit].
With CCN(CC)c1ccc(Nc2nc(-c3cccnc3)cs2)cc1 the Potency was inconclusive: 1.04 µM [inhibitor, full curve, poor fit].
For Cc1ccccc1NC(=O)c1cnc2ccccn2c1=O, the Potency was active: 6.57 µM.
In the case of O=C1NC(Cc2ccccc2)C(=O)N1CC(=O)N1CCCc2ccccc21 (configuration not stated), the Potency was “inactive”.
For COc1cc(C2C(S(=O)(=O)c3ccccc3)CON2C)ccc1OCc1ccc(F)cc1 (configuration not stated), the Potency was “inactive”.
In the case of COc1ccc(C(C)(C)C)cc1NC(=O)COC(=O)c1ccc([N+](=O)[O-])o1, the Potency was “inactive”.
With CCSc1ccc2c(c1)N(CCCN1CCN(C)CC1)c1ccccc1S2 the Potency was inconclusive: 2.56 µM [inhibitor, partial curve] and inconclusive: 18.5 µM [inhibitor, single point].
In the case of CCc1cc(OCCCCNCc2ccccc2)ccc1Cl, the Potency was “inactive”.
With COc1ccc(CNC(=O)CN2CCN(S(=O)(=O)c3ccccc3)CC2)cc1 the Potency was inconclusive: 11.7 µM [inhibitor, single point].
For COC(=O)Nc1ccc2c(c1)N(C(=O)CCN(C)C)c1ccccc1CC2, the Potency was active: 7.38 µM.
With c1ccc(-c2ccc(OCCCn3cncn3)cc2)cc1 the Potency was inconclusive: 18.5 µM [inhibitor, single point].
With COc1ccc(S(=O)(=O)N2CC3CCCN3c3cc(C(F)(F)F)ccc32)cc1 (configuration not stated) the Potency was inconclusive: 13.1 µM [inhibitor, partial curve, poor fit].
For COc1ccc(C(N)=O)c(OCC(=O)Nc2cc(C)on2)c1, the Potency was “inactive”.
With CC(C)c1ccc(NC(=O)Cc2cn(C)c3ccccc23)cc1 the Potency was inconclusive: 0.657 µM [inhibitor, full curve, poor fit].
For CCc1ccc(/C=C2\CN(CC)Cc3c2nc2ccccc2c3C(=O)O)cc1, the Potency was inconclusive: 0.233 µM [inhibitor, full curve, poor fit].
For O=C(CCn1c(=S)[nH]c2ccccc2c1=O)Nc1ccc(F)cc1, the Potency was “inactive”.
In the case of COc1ccccc1-c1cc(N)n[nH]1, the Potency was “inactive”.
For COc1ccc(-c2nc(CS(=O)CC(=O)NCc3ccc4c(c3)OCO4)c(C)o2)cc1OC (configuration not stated), the Potency was inconclusive: 0.185 µM [inhibitor, full curve, poor fit].
In the case of CN(C)C(=O)C1C2NC(=S)N(c3ccccc3)C1(C)Oc1ccccc12 (configuration not stated), the Potency was inconclusive: 4.15 µM [inhibitor, partial curve].
For CC(CN1CCCCC1)OC(=O)c1ccco1 (configuration not stated), the Potency was inconclusive: 2.08 µM [inhibitor, full curve].
In the case of COc1cc(/C=C/CO)cc(OC)c1O[C@@H]1O[C@H](CO)[C@@H](O)[C@H](O)[C@H]1O, the Potency was “inactive”.
With COc1ccc(/C=C(/NC(=O)c2ccccc2)c2nc3ccc(Cl)cc3[nH]2)cc1OC the Potency was “inactive”.
With Cn1nc(-c2ccccc2)cc1NC(=O)Nc1ccc(C(C)(C)C)cc1 the Potency was inconclusive: 11.7 µM [inhibitor, single point].
For Cc1cccc(Oc2sc(C(=O)c3ccccc3)c(N)c2C#N)c1C, the Potency was inconclusive: 0.522 µM [inhibitor, partial curve, poor fit].
For O=C(Nc1ccc2c(c1)OCCO2)c1cccs1, the Potency was active: 2.62 µM.
In the case of O=C1CCC([N+](=O)[O-])C(c2ccccc2Cl)N1 (configuration not stated), the Potency was “inactive”.
For Cc1cc(Cl)ccc1NC(=O)CN1C(=O)NC2(CCCc3ccccc32)C1=O (configuration not stated), the Potency was inconclusive: 0.0083 µM [inhibitor, full curve, poor fit].
With Oc1ccc(-c2nccc(-c3ccc(Br)cc3)n2)cc1 the Potency was “inactive”.
With Fc1ccc(-c2nc(-c3cnccn3)no2)c(Cl)c1 the Potency was “inactive”.
For CCc1ccc(/C=N/NC(=O)c2nnn(-c3nonc3N)c2C(C)C)cc1, the Potency was inconclusive: 18.5 µM [inhibitor, single point].
For Cc1nnsc1NC(=O)OCc1ccc(C(F)(F)F)cc1, the Potency was “inactive”.
With O=C(Cc1ccccc1)NNS(=O)(=O)c1ccccc1[N+](=O)[O-] the Potency was “inactive”.
In the case of O=C(c1cn(-c2ccc(Cl)c(Cl)c2)nn1)C1CC1, the Potency was “inactive”.
With CSc1ccccc1C(=O)NCc1cccnc1 the Potency was “inactive”.
For CN(CC(=O)Nc1cccc(F)c1)C(=O)c1ccc(COc2ccccc2)cc1, the Potency was “inactive”.
With O=C(COC(=O)c1ccccc1C(=O)c1ccccc1)NCCc1ccc(Cl)cc1Cl the Potency was inconclusive: 18.5 µM [inhibitor, single point].
For COCCCNc1nc2nonc2nc1NCCSC, the Potency was inconclusive: 18.5 µM [inhibitor, single point].
In the case of N/C(=N\OC(=O)c1cccc(Br)c1)c1ccc(Br)cc1, the Potency was active: 1.85 µM.
In the case of CCC1CCCCN1CCCNC(=O)CCC(=O)N1CC(C)Oc2ccccc21 (configuration not stated), the Potency was inconclusive: 3.7 µM [inhibitor, partial curve, poor fit].
For O=C(Nc1cccc2ccccc12)N1CCN(c2ccc(F)cc2)CC1, the Potency was active: 1.47 µM.
With COc1cc(-c2ccc3c(=O)c4ccccc4n(C)c3c2)cc(OC)c1OC the Potency was active: 4.65 µM.
In the case of O=C(Nn1c(C2CCCCC2)nc2ccccc2c1=O)c1cc(Cl)ccc1[N+](=O)[O-], the Potency was inconclusive: 11.7 µM [inhibitor, single point].
With O=C(/C=C/c1cccs1)N1CCCCC1 the Potency was inconclusive: 11.7 µM [inhibitor, partial curve].
For Cc1cccc(N(C(=O)Cn2nnc(-c3ccc(F)cc3)n2)C(C(=O)NC(C)(C)C)c2ccncc2)c1 (configuration not stated), the Potency was “inactive”.
In the case of COC(=O)Cn1c(=NC(=O)c2cc(-c3cccs3)nc3ccccc23)sc2cc(S(N)(=O)=O)ccc21, the Potency was inconclusive: 6.57 µM [inhibitor, partial curve].
For CCOC(=O)c1[nH]c(C)c(C(=O)OCC(=O)N2CCc3ccccc32)c1C, the Potency was inconclusive: 13.1 µM [inhibitor, partial curve, poor fit].
For Cc1ccc(/C=c2\sc3n(c2=O)CN(c2ccc(Br)cc2)CN=3)o1, the Potency was inconclusive: 10.4 µM [inhibitor, single point].
With CCCNC(=O)C(Cc1ccccc1)NS(=O)(=O)c1ccc2c(c1)c(=O)n(C)c(=O)n2C (configuration not stated) the Potency was inconclusive: 14.7 µM [inhibitor, single point].
For CCCc1ccc2oc(C(=O)N3CCN(C4CCS(=O)(=O)C4)CC3)c(C)c2c1 (configuration not stated), the Potency was inconclusive: 16.5 µM [inhibitor, partial curve].
For COc1ccc(CCNC(=S)NNC(=O)c2c(Br)c(C)nn2C)cc1OC, the Potency was inconclusive: 16.5 µM [inhibitor, single point].
With Cc1cccc(C(=O)NC(C(=O)Nc2ccccc2N2CCOCC2)C(C)C)c1 (configuration not stated) the Potency was inconclusive: 18.5 µM [inhibitor, single point].
In the case of COc1ccc(S(=O)(=O)NCC(=O)NCc2cc(=O)n(C)c(=O)n2C)cc1, the Potency was “inactive”.
In the case of O=C(CN(C1CCCCC1)S(=O)(=O)c1ccc(Br)cc1)NCc1cccnc1, the Potency was “inactive”.
